Experimental data: US20130164309A1
These are yes or no findings as the source states them, for the method shown. Some entries that bind do so weakly or less than the wild type.

By UniProt entry, the sequences of proteins in these tests, tags left out. Where a name states a change or a piece, a line headed by the entry shows the natural chain unless it says otherwise.
UniProt Q9NPF0: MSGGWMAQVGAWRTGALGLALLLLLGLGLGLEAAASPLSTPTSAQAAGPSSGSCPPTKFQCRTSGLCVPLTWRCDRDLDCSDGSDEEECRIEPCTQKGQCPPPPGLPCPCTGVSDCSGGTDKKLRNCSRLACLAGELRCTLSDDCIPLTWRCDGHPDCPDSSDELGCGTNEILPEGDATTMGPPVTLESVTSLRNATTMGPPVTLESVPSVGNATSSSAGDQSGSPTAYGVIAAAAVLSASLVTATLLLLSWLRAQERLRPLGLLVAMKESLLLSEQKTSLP
UniProt P20062: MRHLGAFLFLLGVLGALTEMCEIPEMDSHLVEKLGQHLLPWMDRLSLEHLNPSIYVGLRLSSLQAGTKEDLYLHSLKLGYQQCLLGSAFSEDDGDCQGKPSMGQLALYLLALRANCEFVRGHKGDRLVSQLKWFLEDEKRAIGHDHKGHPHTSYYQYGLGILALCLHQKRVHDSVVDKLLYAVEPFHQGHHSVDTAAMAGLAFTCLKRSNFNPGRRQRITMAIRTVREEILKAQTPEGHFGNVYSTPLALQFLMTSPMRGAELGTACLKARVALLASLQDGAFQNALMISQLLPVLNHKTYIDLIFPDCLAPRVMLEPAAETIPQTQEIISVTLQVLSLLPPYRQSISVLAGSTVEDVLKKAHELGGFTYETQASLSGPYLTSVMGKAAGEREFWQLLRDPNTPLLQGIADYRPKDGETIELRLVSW

Biological target: recombinant extracellular domain of human TCblR (aa 32-233), untagged secreted form (human) (UniProt Q9NPF0)
Experiment: affinity purification of TCblR ECD with TC-Cbl as affinity ligand

binding: binds
Substance: DsRed TC fusion protein saturated with Cbl (from UniProt P20062 19-427; Q9U6Y8 1-225) (ligand)
